{"source": "PubChem BioAssay AID1671195 (Yale University, 2021)", "aim": "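Genes whose knockdown alters LDL uptake in liver cancer cells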 (primary screen)", "cell system": "human Huh7 hepatoma cells", "reagents": "siRNA pool against human genes, 18 nM", "timing": "about 2 to 2.5 days of knockdown, then 8 h LDL uptake", "conditions": "DiI-labelled LDL at 30 µg/ml for 8 h, in lipoprotein-deficient serum medium", "detection": "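Fluorescent LDL signal imaged in cells, scaled to the plate median, robust z-score for each replicate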", "direction": "robust z-score: higher = more LDL uptake after knockdown", "active means": "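a gene counts as active if at least two replicate z-scores exceed ±2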", "note": "The deposit covers about 22,000 reagents; this is a part drawn at random. Over the whole deposit, about 1,510 (6.9%) got an active call. 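Active includes knockdowns raising or lowering LDL uptake; positive z-scores mean more uptake, negative mean less.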"}
{"Gene":"KIF2A (GeneID 3796)","robust z-score, replicate 1":1.25,"robust z-score, replicate 2":2.02,"robust z-score, replicate 3":0.694,"activity call":"inactive"}
{"Gene":"DSP (GeneID 1832)","robust z-score, replicate 1":1.82,"robust z-score, replicate 2":-0.952,"robust z-score, replicate 3":0.979,"activity call":"inactive"}
{"Gene":"PRKD2 (GeneID 25865)","robust z-score, replicate 1":-0.0781,"robust z-score, replicate 2":-0.796,"robust z-score, replicate 3":0.314,"activity call":"inactive"}
{"Gene":"ZNF585B (GeneID 92285)","robust z-score, replicate 1":-0.0723,"robust z-score, replicate 2":0.218,"robust z-score, replicate 3":-0.00106,"activity call":"inactive"}
{"Gene":"GRIK5 (GeneID 2901)","robust z-score, replicate 1":-0.505,"robust z-score, replicate 2":-0.655,"robust z-score, replicate 3":-0.238,"activity call":"inactive"}
{"Gene":"TCP1 (GeneID 6950)","robust z-score, replicate 1":0.501,"robust z-score, replicate 2":0.284,"robust z-score, replicate 3":0.314,"activity call":"inactive"}
{"Gene":"LINC02789 (GeneID 400800)","robust z-score, replicate 1":-0.0888,"robust z-score, replicate 2":-0.221,"robust z-score, replicate 3":0.0276,"activity call":"inactive"}
{"Gene":"ALDH18A1 (GeneID 5832)","robust z-score, replicate 1":-0.0537,"robust z-score, replicate 2":-0.209,"robust z-score, replicate 3":-0.156,"activity call":"inactive"}

A run of entries taken from the entries so far:
{"Gene":"ZNF585B (GeneID 92285)","robust z-score, replicate 1":-0.0723,"robust z-score, replicate 2":0.218,"robust z-score, replicate 3":-0.00106,"activity call":"inactive"}
{"Gene":"GRIK5 (GeneID 2901)","robust z-score, replicate 1":-0.505,"robust z-score, replicate 2":-0.655,"robust z-score, replicate 3":-0.238,"activity call":"inactive"}

Additional records follow.
{"Gene":"ZMYM2 (GeneID 7750)","robust z-score, replicate 1":2.75,"robust z-score, replicate 2":-0.00903,"robust z-score, replicate 3":0.884,"activity call":"inactive"}
{"Gene":"ATF1 (GeneID 466)","robust z-score, replicate 1":0.58,"robust z-score, replicate 2":-0.541,"robust z-score, replicate 3":0.125,"activity call":"inactive"}
{"Gene":"LMX1B (GeneID 4010)","robust z-score, replicate 1":-1.56,"robust z-score, replicate 2":-1.58,"robust z-score, replicate 3":-1.54,"activity call":"inactive"}
{"Gene":"RNF186 (GeneID 54546)","robust z-score, replicate 1":-1.29,"robust z-score, replicate 2":1.27,"robust z-score, replicate 3":-1.13,"activity call":"inactive"}
